Assay results: patent publication US20260109776A1
No constants are given. Whether binding was seen depends on the method and setting. Some binding calls cover weakened binding; strength is not graded here.

By UniProt entry, the sequences of proteins in these tests, tags left out. Where a name states a change or a piece, a line headed by the entry shows the natural chain unless it says otherwise.
UniProt Q13421: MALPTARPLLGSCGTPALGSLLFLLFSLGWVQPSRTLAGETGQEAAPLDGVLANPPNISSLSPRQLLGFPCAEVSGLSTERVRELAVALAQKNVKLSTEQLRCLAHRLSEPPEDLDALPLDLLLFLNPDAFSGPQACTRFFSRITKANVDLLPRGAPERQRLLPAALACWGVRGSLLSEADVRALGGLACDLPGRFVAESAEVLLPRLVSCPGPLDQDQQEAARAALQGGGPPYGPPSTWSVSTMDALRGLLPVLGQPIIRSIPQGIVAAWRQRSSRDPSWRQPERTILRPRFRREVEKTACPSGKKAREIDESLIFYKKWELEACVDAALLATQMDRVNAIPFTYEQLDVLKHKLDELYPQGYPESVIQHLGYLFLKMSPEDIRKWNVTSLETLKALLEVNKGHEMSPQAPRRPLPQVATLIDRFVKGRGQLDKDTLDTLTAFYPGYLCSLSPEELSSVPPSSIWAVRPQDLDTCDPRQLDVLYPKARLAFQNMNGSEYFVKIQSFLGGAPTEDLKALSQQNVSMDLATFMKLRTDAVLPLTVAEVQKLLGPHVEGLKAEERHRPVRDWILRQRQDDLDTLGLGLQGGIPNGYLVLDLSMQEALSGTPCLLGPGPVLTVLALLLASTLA

Target: soluble recombinant human mesothelin (human) (UniProt Q13421)
Experiment: Octet, soluble recombinant mesothelin

B1: 4H6 (antibody, human IgG1, V domains shown)
VH: QVQLVESGGGLVKPGGSLRLSCAASGFTFSDYYMTWIRQAPGKGLEWISYISSSGSTIYYADSVKGRFTISRDNAKNSLYLQMNSLRAEDTAVYYCARDRNSHFDYWGQGTLVTVSS
VL: DIQMTQSPSSVSASVGDRVTITCRASQGITRWLAWYQQKPGKAPKLLIYAASVLQSGVPSRFSGSGSGTDFTLTISSLQPEDFATYYCQQSNSFPRTFGQGTKVEIK
binding: binds
